{
  "source": "patent US20250263667A1",
  "about": "“HUMAN FATTY-LIVER MODEL CELLS FOR USE IN SCREENING METHOD” (PhoenixBio Co., Ltd., priority 2021, published 2025)",
  "key": {"[1]": {"test_system": "PXB-cells", "experiment": "Analysis of lipoprotein in culture supernatant (LipoSEARCH gel filtration HPLC) of PXB-cells", "assay_type": "cell-based, human", "conditions": "2 days; for VLDL content of the culture supernatant (neutral fat (triglyceride)): vs ethanol control", "experimental": "The following day of seeding, medium A was removed. Instead, 500 μL of medium B (DMSO (+)) or medium C (DMSO (−)) was added. The plate was gently placed in an incubator (37° C., 5% CO2) and the cells were cultured for 5 days. After completion of culture, an image of the cells was taken by a photomicrographic camera. Then, the culture supernatant was recovered and subjected to analysis for lipoprotein in the culture supernatant described below. Lipoproteins contained in the culture supernatants of PXB-cells, HepG2 cells and HuH7 cells were analyzed by using LipoSEARCH (registered trademark) method (Skylight Biotech, Inc.). After completion of the culture mentioned above, the medium used in the culture was removed and 500 μL of medium D for analysis was added. The culture plate was gently placed in an incubator (37° C., 5% CO2) and the cells were cultured for 2 days. Thereafter, the culture supernatant was recovered, lipoproteins contained in the culture supernatant (80 μL) were fractionated into 4 types of subgroups, CM, VLDL, LDL and HDL fractions, by gel filtration HPLC. Cholesterol and neutral fat (triglyceride) contained in individual fractions were quantified by online enzyme reactions. Concentration analysis was carried out in accordance with the computer program specifically developed by Skylight Biotech, Inc. Note that, in the enzymatic reaction, Diacolor Liquid TG-S (manufactured by Toyobo Co., Ltd.) was used. As standard sera for cholesterol and neutral fat (triglyceride) concentration in CM, VLDL, LDL and HDL, the sera manufactured by Kyowa Hakko Kirin Co., Ltd. were used. PXB-cells were diluted with medium A. The diluted cell suspension (500 μL) was gently poured to individual wells of a culture plate. The plate was allowed to stand still for about 20 minutes until the cells were slightly in contact with the bottom surface of the wells and gently placed to an incubator (37° C., 5% CO2) to culture the cells. The following day of seeding, medium A was removed and 500 μL of medium B (DMSO (+)) was added. The plate was gently placed in an incubator (37° C., 5% CO2) and the cells were cultured for 13 days. After completion of culture, the cells were used in the following test. A medium of PXB-cells prepared above was exchanged with medium D containing 0.75 mM oleic acid, and gently placed in an incubator (37° C., 5% CO2). PXB-cells were cultured for two days. PXB-cells were prepared in the same manner as in the method set forth in “Preparation of cells” in the above step (1-1) except that the period of culture in medium B (DMSO (+)) was set at 6 days and subjected to the following test. The mediums for the PXB-cells prepared above were exchanged with mediums D containing 1 nM or 5 nM lomitapide respectively and gently placed in an incubator (37° C., 5% CO2). PXB-cells were cultured for two days. PXB-cells were prepared in the same manner as in the method set forth in “Preparation of cells” in the above step (1-1) and subjected to the following test. The mediums of the PXB-cells prepared above were exchanged with mediums D containing 10 μM, 50 μM or 100 μM fenofibrate and gently placed in an incubator (37° C., 5% CO2). The PXB-cells were cultured for 2 days. After completion of the culture, cholesterol and neutral fat (triglyceride) in the culture supernatant and cells were measured in accordance with the method described in the above section “Analysis of lipoprotein in culture supernatant” and “Analysis of lipoprotein in cells”, respectively."}, "[2]": {"test_system": "PXB-cells", "experiment": "Analysis of lipoprotein in cells (intracellular triglyceride and cholesterol, Cholestest) of PXB-cells", "assay_type": "cell-based, human", "conditions": "fenofibrate (10, 50 or 100 μM), 2 days; data not shown", "experimental": "Triglyceride in cells was measured by use of Cholestest (registered trademark) TG (Sekisui Medical Co., Ltd.) in accordance with the instruction by the manufacturer. More specifically, the cells were washed with PBS, and then, completely dewatered (stored at -80° C. until measurement). To each well containing the cells, 200 μL of TG enzyme solution (1) was added. A reaction was allowed to proceed while keeping the cells warm at 37° C. for 10 minutes (free glycerol was removed) Then, the cells were torn away by pipetting, transferred to a centrifuge tube and centrifuged at 10,000 rpm×10 minutes. Then, the supernatant (7.5 μL) was transferred to a 96-well microplate. […] The resultant reaction product was subjected to measurement of absorbance at 550 nm. The content of triglyceride was calculated based on HDL-[…] as the reference (triglyceride concentration of HDL-[…] was 52.26 mg/dL). Intracellular cholesterol was measured by use of Cholestest (registered trademark) CHO (Sekisui Medical Co., Ltd.) in accordance with the instruction by the manufacturer. […] The resultant reaction product was subjected to measurement of absorbance at 550 nm. The content of cholesterol was calculated based on HDL-[…] as the standard ([…] of HDL-[…] was 152.67 mg/dL). […]"}},
  "note": "At least one compound was matched to its structure with a doubt left.",
  "data": [
    {"smiles": "CC(C)OC(=O)C(C)(C)Oc1ccc(C(=O)c2ccc(Cl)cc2)cc1", "note": "[fenofibrate]", "values": [
      {"measurement": "VLDL content of the culture supernatant (neutral fat (triglyceride))", "setting": "[1]; 0 μM fenofibrate (so in the source) in medium D, PXB-cells pre-cultured 13 days in medium B (DMSO (+))", "result": "significantly decreased"},
      {"measurement": "VLDL content of the culture supernatant (neutral fat (triglyceride))", "setting": "[1]; 50 μM fenofibrate in medium D", "result": "significantly decreased"},
      {"measurement": "VLDL content of the culture supernatant (neutral fat (triglyceride))", "setting": "[1]; 100 μM fenofibrate in medium D", "result": "significantly decreased"},
      {"measurement": "content of Large-VLDL in the culture supernatant (neutral fat (triglyceride))", "setting": "[1]; fenofibrate in medium D", "result": "significantly decreased"},
      {"measurement": "content of Medium-VLDL in the culture supernatant (neutral fat (triglyceride))", "setting": "[1]; fenofibrate in medium D", "result": "significantly decreased"},
      {"measurement": "content of Small-VLDL in the culture supernatant (neutral fat (triglyceride))", "setting": "[1]; fenofibrate in medium D", "result": "significantly decreased"},
      {"measurement": "content of neutral fat (triglyceride) in the cells", "setting": "[2]", "result": "no change"}
    ]}
  ]
}
